Laboratory results reported in PMC11039647.
These are yes or no findings as the source states them, for the method shown. Binding seen in cells or lysates may run through a third protein. Binding can be weak; no strength is given.

Sequences of proteins named here, by UniProt entry; tags and fusion partners are left off. A change or cut given only in a name is not applied to a line headed by its entry.
UniProt P43694: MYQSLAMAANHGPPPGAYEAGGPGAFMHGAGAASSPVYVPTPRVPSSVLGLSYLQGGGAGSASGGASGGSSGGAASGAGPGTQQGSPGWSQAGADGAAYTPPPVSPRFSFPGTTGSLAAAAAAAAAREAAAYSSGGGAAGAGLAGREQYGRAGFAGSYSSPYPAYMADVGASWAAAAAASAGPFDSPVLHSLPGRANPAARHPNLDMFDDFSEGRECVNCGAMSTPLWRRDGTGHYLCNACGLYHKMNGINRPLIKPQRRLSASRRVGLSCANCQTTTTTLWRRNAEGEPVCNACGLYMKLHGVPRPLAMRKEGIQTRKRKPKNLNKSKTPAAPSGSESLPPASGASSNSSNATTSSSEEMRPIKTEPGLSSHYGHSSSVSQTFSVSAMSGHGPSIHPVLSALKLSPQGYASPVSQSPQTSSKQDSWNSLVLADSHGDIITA
UniProt Q04206: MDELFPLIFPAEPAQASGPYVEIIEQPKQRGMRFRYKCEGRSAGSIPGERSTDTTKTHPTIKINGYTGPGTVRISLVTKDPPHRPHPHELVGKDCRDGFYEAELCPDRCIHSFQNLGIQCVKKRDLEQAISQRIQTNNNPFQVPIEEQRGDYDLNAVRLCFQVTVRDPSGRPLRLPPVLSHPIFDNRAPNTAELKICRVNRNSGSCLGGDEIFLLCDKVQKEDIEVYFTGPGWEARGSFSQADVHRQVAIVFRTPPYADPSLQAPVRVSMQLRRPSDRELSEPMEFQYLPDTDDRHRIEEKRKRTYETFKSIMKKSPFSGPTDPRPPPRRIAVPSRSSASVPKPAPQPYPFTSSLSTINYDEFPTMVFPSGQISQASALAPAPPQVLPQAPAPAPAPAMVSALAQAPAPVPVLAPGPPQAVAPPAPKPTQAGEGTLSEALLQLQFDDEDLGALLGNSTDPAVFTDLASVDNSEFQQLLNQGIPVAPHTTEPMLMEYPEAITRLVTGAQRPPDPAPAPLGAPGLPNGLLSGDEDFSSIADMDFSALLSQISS

Experiments:
[1] = molecular target: Myc-GATA4-△ZF1 (UniProt P43694); experiment: co-IP; HEK293T cells co-transfected with tagged plasmids, lysates in TNE lysis buffer; immunoprecipitation with anti-GFP or anti-Myc antibody or Flag-affinity magnetic beads, western blot for the tag of the partner; for HA-HDAC1 with GFP-p65: with or without co-transfected Flag-GATA4
[2] = molecular target: Myc-GATA4-△ZF2 (UniProt P43694); experiment: as above

- binding [1]: binds
- binding [2]: binds
Substance: GFP-p65 (from UniProt Q04206 1-551)
